Measured values from publication PMC7538601, “Low-Zone IL-2 Signaling: Fusion Proteins Containing Linked CD25 and IL-2 Domains Sustain Tolerogenic Vaccination in vivo and Promote Dominance of FOXP3^+ Tregs in vitro” (Frontiers in Immunology, 2020).
No constants are given. Whether binding was seen depends on the method and setting. Some entries that bind do so weakly or less than the wild type. Sequences can lack the tags named with a protein.

T1: Full length murine CD25 on HEK cells (mouse, UniProt P01590 22-268)
T1 sequence (looked up): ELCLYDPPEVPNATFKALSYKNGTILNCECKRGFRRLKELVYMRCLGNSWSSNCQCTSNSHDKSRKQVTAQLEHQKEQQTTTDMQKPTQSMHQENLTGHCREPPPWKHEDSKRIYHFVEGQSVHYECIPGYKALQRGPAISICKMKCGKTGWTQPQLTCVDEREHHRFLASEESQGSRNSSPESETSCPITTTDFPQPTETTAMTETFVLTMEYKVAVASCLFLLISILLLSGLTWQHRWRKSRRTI

B1: Recombinant murine IL-2 (ligand, UniProt P04351 21-169)
chain: APTSSSTSSSTAEAQQQQQQQQQQQQHLEQLLMDLQELLSRMENYRNLKLPRMLTFKFYLPKQATELKDLQCLEDELGPLRHVLDLTQSKSFQLEDAENFISNIRVTVVKLKGSDNTFECQFDDESATVVDFLRRWIAFCQSIISTSPQ
B2: CD25-IL2 fusion protein (other, mouse)
chain: ELCLYDPPEVPNATFKALSYKNGTILNCECKRGFRRLKELVYMRCLGNSWSSNCQCTSNSHDKSRKQVTAQLEHQKEQQTTTDMQKPTQSMHQENLTGHCREPPPWKHEDSKRIYHFVEGQSVHYECIPGYKALQRGPAISICKMKCGKTGWTQPQLTCVDEREHHRFLASEESQGSRNSSPESETSCPITTTDFPQPTETTAMTETFVLTMEYKGGGGSTRGGGGSTGGGGSGGGGSSAPTSSSTSSSTAEAQQQQQQQQQQQQHLEQLLMDLQELLSRMENYRNLKLPRMLTFKFYLPKQATELKDLQCLEDELGPLRHVLDLTQSKSFQLEDAENFISNIRVTVVKLKGSDNTFECQFDDESATVVDFLRRWIAFCQSIISTSPQ
notes: signal peptide in the construct; murine soluble CD25 (IL-2 receptor alpha chain), aa1-236 of NP_032393; 23-aa flexible linker; murine IL-2, aa20-169 of NP_032392; Glycosylated; about 70 kDa on SDS-PAGE, reducing and non-reducing; By SEC it runs as higher order multimers; also called CD25-IL2 FP; FP; source: HEK293F, stably transfected (pCMV), expression supernatant, purified (Ni-NTA); not shown: …
B3: IL2-CD25 fusion protein (other, mouse)
chain: APTSSSTSSSTAEAQQQQQQQQQQQQHLEQLLMDLQELLSRMENYRNLKLPRMLTFKFYLPKQATELKDLQCLEDELGPLRHVLDLTQSKSFQLEDAENFISNIRVTVVKLKGSDNTFECQFDDESATVVDFLRRWIAFCQSIISTSPQGGGGSTRGGGGSTGGGGSGGGGSELCLYDPPEVPNATFKALSYKNGTILNCECKRGFRRLKELVYMRCLGNSWSSNCQCTSNSHDKSRKQVTAQLEHQKEQQTTTDMQKPTQSMHQENLTGHCREPPPWKHEDSKRIYHFVEGQSVHYECIPGYKALQRGPAISICKMKCGKTGWTQPQLTCVDEREHHRFLASEESQGSRNSSPESETSCPITTTDFPQPTETTAMTETFVLTMEYK
notes: signal peptide in the construct; murine IL-2, aa1-169 of NP_032392; 23-aa flexible linker; murine soluble CD25 (IL-2 receptor alpha chain), aa22-236 of NP_032393; Glycosylated; about 70 kDa on SDS-PAGE, reducing and non-reducing; By SEC it runs as higher order multimers; also called IL2-CD25 FP; FP; source: HEK293F, stably transfected (pIRES AcGFP1), expression supernatant, purified (Ni-NTA); not …

Target: T1, Full length murine CD25 on HEK cells
Assay: flow cytometry on cells; HEK cells expressing transmembrane full-length mouse CD25 incubated with 1 uM or designated concentrations of His-tagged proteins, extensively washed, then APC-labeled anti-Histag mAb; percent APC+ cells and MFI; only the binder purified

binding, binds:
B1, B2, B3
